Among the data in publication doi:10.1101/2025.05.27.656411 are binding values, retold here.

Results are given in words; binding and its absence hold for the method and conditions named. Binding seen in cells or lysates may run through a third protein. These calls come from enrichment with a bait or labelling near it, and not all partners need be listed.

The experiment deals with ECM29 fused to a 3×HA-YFP tag (Arabidopsis). The experiment is described as follows: affinity purification with mass spectrometry.

B1: RPN6 (protein, UniProt Q9LP45 1-419)
chain: MVSYRATTETISLALEANSSEAITILYQVLEDPSSSPEAIRIKEQAITNLCDRLTEEKRGEDLRKLLTKLRPFFSLIPKAKTAKIVRGIIDAVAKIPGTTDLQITLCKEMVEWTRAEKRTFLRQRVEARLAALLMENKEYVEALALLSTLVKEVRRLDDKLLLVDIDLLESKLHFSLRNLPKAKAALTAARTAANAIYVPPAQQGTIDLQSGILHAEEKDYKTGYSYFFEAFESFNALGDPRAVFSLKYMLLCKIMVSQADDVAGIISSKAGLQYVGPDLDAMKAVADAHSKRSLKLFENALRDYKAQLEDDPIVHRHLSSLYDTLLEQNLCRLIEPFSRVEIAHIAELIGLPLDHVEKKLSQMILDKKFAGTLDQGAGCLIIFEDPKADAIYSATLETIANMGKVVDSLYVRSAKIMS
Take B1: the binding result is on record as “binds”.
